Data from PubChem BioAssay AID645 (SRMLSC, 2007).
Hit rate of the full screen: of about 65,000 compounds, about 450 (0.69%) were called active. The inconclusive results got no clear call from the source; some entries with a clear call stand among them for comparison.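 How the source made its calls: active means HER2 level under 5% of the carrier-only control; inconclusive means no clear call, values can overlap the other calls; inactive means the rest.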

Biological target: Receptor tyrosine-protein kinase erbB-2 (Homo sapiens) (UniProt P04626)
Experiment: inhibitors of Her2 protein expression, primary screen, SKBR-3 cells, AlphaScreen, 66K library (AID 645);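 further: 100% = DMSO carrier and 0% = 500 nM PU-H71 HSP90 inhibitor; lower value means stronger loss of Her2 protein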
Settings: SKBR-3 HER2 protein level, 18-24 h, at 10 µM, active compounds read low

HER2 level % of control, active:
Nc1c(S(=O)(=O)c2cccc(Cl)c2)c2nc3ccccc3nc2n1/N=C/c1ccc(O)c(O)c1 -13.1%
COc1ccccc1C(CC(=O)Nc1nccs1)c1ccco1 (stereo not drawn) -16.8%
COc1ccc(N2C(=O)CC(Sc3nnc(-c4ccccc4)o3)C2=O)cc1 (stereo not drawn) -18.1%
CC(C)N(Cc1nc(-c2ccccc2)no1)C(=O)CN1C(=O)c2ccccc2C1=O -19.1%
O=C(CCCCCn1c(=S)[nH]c2cc3c(cc2c1=O)OCO3)N1CCN(C2CCCCC2)CC1 -16%
Nc1ccc2ncccc2c1N -18.6%
CC(=O)C(Sc1ncnc2c1nnn2-c1ccc(F)cc1)C(=O)N(C)C (stereo not drawn) -10.4%
CCOc1ccccc1N(CC(=O)N1CCOCC1)S(=O)(=O)c1ccccc1 -21.1%

HER2 level % of control, inactive:
CCOc1ccc(S(=O)(=O)Nc2cc(OC)ccc2OC)cc1 21.2%
CC(=Nc1cccc(O)c1)c1sc2ccccc2c1O 96.2%
COc1ccc(OCc2nnc3n2N=C(c2ccc(OC)cc2)CS3)cc1 66.7%
CCc1cc2c(N[C@@H](C)C(=O)O)ncnc2s1 95.5%

HER2 level % of control, inconclusive:
CCc1ccc(N2CC(C)Cn3c2nc2c3c(=O)n(CCN3CCOCC3)c(=O)n2C)cc1 (stereo not drawn) 22.1%
COc1ccc(C2CC(c3ccccc3)Nc3nc(NC(=O)c4ccco4)nn32)cc1 (stereo not drawn) 31.6%
CCc1ccc2oc(-c3cc(N=Cc4cccc(OC)c4O)ccc3O)nc2c1 20.3%
COc1ccc2c(C(=O)CN3CC(C)OC(C)C3)c[nH]c2c1 (stereo not drawn) 31%
COc1ccc(-c2csc(N(CC3CCCO3)C(=O)c3ccco3)n2)cc1 (stereo not drawn) 38.6%
CCc1nc(N)c(C#N)c(-c2cccnc2)c1C 13.8%
Cc1ccc2[nH]cc(C(=O)CN3CCN(c4ccccn4)CC3)c2c1 27.8%
CC1CCN(c2ccccc2N)CC1 30.9%
COc1ccc(OC)c(NC(=O)C2C3C=CC(C3)C2C(=O)NCc2ccccn2)c1 (stereo not drawn) 48.5%
CC(=O)Nn1c(COc2ccccc2C)nc2ccccc2c1=O 68.5%
C/C(Cl)=C\Cn1c(Nc2cccc(C)c2)nc2c1c(=O)n(C)c(=O)n2C 33.3%

Quoted at random: 2 records from the list.
HER2 level % of control, inconclusive:
COc1ccc2c(C(=O)CN3CC(C)OC(C)C3)c[nH]c2c1 (stereo not drawn) 31%
CCc1ccc(N2CC(C)Cn3c2nc2c3c(=O)n(CCN3CCOCC3)c(=O)n2C)cc1 (stereo not drawn) 22.1%
